# Measurements published in the supplement of paper PMC3682954.
# Counter-ions that a name gives are not always drawn. ± gives the standard deviation of the averaged measurements. This is one part of the list. Many values rest on one well or one pass, so single values are uncertain.
# System: RAW 264.7
# Test: HMGB1-induced TNF-alpha production relative to HMGB1-stimulated control; higher = more TNF-alpha secretion (less inhibition)
# Conditions: stimulus: HMGB1 5 ug/ml, 18 h
# [1] = compound concentration: 1 ug/ml
SMILES,HMGB1-induced TNF-alpha production (compound concentration: 3 uM) [%],HMGB1-induced TNF-alpha production [1] [%]
COc1ccc(CCn2nnnc2C2(c3ccc(C)cc3)CC2)cc1 [Mephetyl tetrazole],97,
CN1[C@@H]2CC[C@H]1C[C@@H](OC(=O)C(O)c1ccccc1)C2 (mixture of isomers) [DL-Homatropine hydrobromide],81.1,
"CN1[C@@H]2CC[C@H]1C[C@@H](OC(=O)C(O)c1ccccc1)C2 (mixture of isomers) [Homatropine hydrobromide (R,S)]",64.5,
Cn1nnc2c(C(N)=O)ncn2c1=O [Temozolomide],98.1 ± 16,
Cn1nnc2c(C(N)=O)ncn2c1=O,125,
CC(C)(C)CC(C)(C)c1ccc(OCCOCC[N+](C)(C)Cc2ccccc2)cc1,102,
CC(C)(C)CC(C)(C)c1ccc(OCCOCC[N+](C)(C)Cc2ccccc2)cc1 [Benzethonium chloride],132,
CC(C)NCC(O)COc1cccc2[nH]ccc12 (stereo unspecified),103,
CC(C)NCC(O)COc1cccc2[nH]ccc12 (stereo unspecified) [Pindolol],101 ± 1.2,
OC(CCN1CCCC1)(c1ccccc1)C1CCCCC1 (stereo unspecified) [Procyclidine hydrochloride],108,
OC(CCN1CCCC1)(c1ccccc1)C1CCCCC1 (stereo unspecified),77.6,
CC(CN(C)C)CN1c2ccccc2CCc2ccccc21 (stereo unspecified),89.9,
CC(CN(C)C)CN1c2ccccc2CCc2ccccc21 (stereo unspecified) [Trimipramine maleate salt],117,
CC(CN(C)C)CN1c2ccccc2CCc2ccccc21 (stereo unspecified) [Trimipramine maleate],106,
COC(=O)[C@H]1[C@H]2C[C@H]3c4[nH]c5ccccc5c4CCN3C[C@H]2CC[C@@H]1O [Rauwolscine hydrochloride],108,84.3
COC(=O)C(C)(N)Cc1ccc(O)cc1 (racemic) [alpha-Methyl-DL-tyrosine methyl ester hydrochloride],92.6,
"Nc1ncnc2c1ncn2[C@@H]1O[C@@H]2COP(=O)(O)O[C@H]2[C@H]1O [Adenosine 3',5'-cyclic monophosphate]",88.4,
CC1=C(/C=C/C(C)=C/C=C/C(C)=C/C=C/C=C(C)/C=C/C=C(C)/C=C/C(=O)[C@]2(C)C[C@@H](O)CC2(C)C)C(C)(C)C[C@H](O)C1,93.8,
C[C@H]1[C@H]2CC[C@H]3[C@@H]4CC=C5C[C@@H](N(C)C)CC[C@]5(C)[C@H]4CC[C@]23CN1C [Conessine],,69.5
CC(C)C(=O)c1c(C(C)C)nn2ccccc12 [Ibudilast],63.9 ± 27,
C[N+](C)(C)C[C@H](O)CC(=O)[O-],90.2,
NCCc1ccc(O)c(O)c1,96.9,

SMILES,HMGB1-induced TNF-alpha production (compound concentration: 3 uM) [%],HMGB1-induced TNF-alpha production [1] [%]
NCCc1ccc(O)c(O)c1 [Dopamine hydrochloride],105 ± 22,
COc1ccc2c(=O)cc(-c3ccc(O)cc3)oc2c1,,55.2
C[C@H](Cc1ccc(O)c(O)c1)[C@@H](C)Cc1ccc(O)c(O)c1,153,
NC(N)=NC(N)=Nc1ccccc1 [1-Phenylbiguanide],111,
"COc1ccc2c(=O)cc(-c3ccccc3OC)oc2c1 [2',7-Dimethoxyflavone]",,91.7
NC(=O)c1ccccc1 [Benzamide],59.9,
CN(Cc1cc(Br)cc(Br)c1N)C1CCCCC1,109,
CN(Cc1cc(Br)cc(Br)c1N)C1CCCCC1 [Bromhexine hydrochloride],117,
CN(Cc1cc(Br)cc(Br)c1N)C1CCCCC1 [Bromhexine],84.3,
C[C@H](CS)C(=O)N1CCC[C@H]1C(=O)O,81.9,
C[C@H](CS)C(=O)N1CCC[C@H]1C(=O)O [Captopril],90.1 ± 22,
Cc1cc(C(=O)N/N=C/c2c(O)c(O)c(C(C)C)c3cc(C)c(-c4c(C)cc5c(C(C)C)c(O)c(O)c(/C=N/NC(=O)c6cc(C)[nH]n6)c5c4O)c(O)c23)n[nH]1,,50.9
CC1(C)O[C@@H]2C[C@H]3[C@@H]4C[C@H](F)C5=CC(=O)C=C[C@]5(C)[C@H]4[C@@H](O)C[C@]3(C)[C@]2(C(=O)CO)O1 [Flunisolide],41.8,
CC1(C)O[C@@H]2C[C@H]3[C@@H]4C[C@H](F)C5=CC(=O)C=C[C@]5(C)[C@H]4[C@@H](O)C[C@]3(C)[C@]2(C(=O)CO)O1,36,
CCCN(CC1CC1)c1nc(C)nc(Nc2c(Cl)cc(Cl)cc2Cl)c1Cl,80.2,
Nc1ncnc2c1ncn2C1CCCC1 [9-cyclopentyladenine],80.1,
C[C@]12CCC(=O)C=C1CC[C@@H]1[C@@H]2[C@@H](O)C[C@@]2(C)[C@H]1CC[C@]2(O)C(=O)COP(=O)(O)O,58.9,
Nc1ccn([C@@H]2O[C@H](COP(=O)(O)O)[C@@H](O)[C@H]2O)c(=O)n1 [Cytidine 5'-monophosphate],,80.3
CC(=O)OCC(=O)[C@@]1(O)CC[C@H]2[C@@H]3CCC4=CC(=O)C=C[C@]4(C)[C@H]3[C@@H](O)C[C@@]21C [prednisolone 21-acetate],,35.9
CC(=O)OCC(=O)[C@@]1(O)CC[C@H]2[C@@H]3CCC4=CC(=O)C=C[C@]4(C)[C@H]3[C@@H](O)C[C@@]21C,33.5,
O=C1NC(c2cccc([N+](=O)[O-])c2)=CCN1c1ccccc1O [Icilin],90.6,
COc1cc(N)c(Cl)cc1C(=O)OCCN1CCCCC1,100,

# In another format: results already given
SMILES | HMGB1-induced TNF-alpha production (compound concentration: 3 uM) [%] | HMGB1-induced TNF-alpha production [1] [%]
CC1(C)O[C@@H]2C[C@H]3[C@@H]4C[C@H](F)C5=CC(=O)C=C[C@]5(C)[C@H]4[C@@H](O)C[C@]3(C)[C@]2(C(=O)CO)O1 [Flunisolide] | 41.8 | 
CC1(C)O[C@@H]2C[C@H]3[C@@H]4C[C@H](F)C5=CC(=O)C=C[C@]5(C)[C@H]4[C@@H](O)C[C@]3(C)[C@]2(C(=O)CO)O1 | 36 | 
CCCN(CC1CC1)c1nc(C)nc(Nc2c(Cl)cc(Cl)cc2Cl)c1Cl | 80.2 | 
Nc1ncnc2c1ncn2C1CCCC1 [9-cyclopentyladenine] | 80.1 | 
C[C@]12CCC(=O)C=C1CC[C@@H]1[C@@H]2[C@@H](O)C[C@@]2(C)[C@H]1CC[C@]2(O)C(=O)COP(=O)(O)O | 58.9 | 
Nc1ccn([C@@H]2O[C@H](COP(=O)(O)O)[C@@H](O)[C@H]2O)c(=O)n1 [Cytidine 5'-monophosphate] |  | 80.3

# The listing continues.

SMILES,HMGB1-induced TNF-alpha production (compound concentration: 3 uM) [%],HMGB1-induced TNF-alpha production [1] [%]
Cc1cc(=O)oc2cc(OC3OC(C(=O)O)C(O)C(O)C3O)ccc12 [4-Methylumbelliferyl-beta-D-glucuronide trihydrate],,67.1
Cc1c(Nc2ncccc2C(=O)O)cccc1C(F)(F)F,89.2,
Cc1c(Nc2ncccc2C(=O)O)cccc1C(F)(F)F [Flunixin meglumine],101,
CC[C@H](c1ccc(O)cc1)[C@@H](CC)c1ccc(O)cc1 [Hexestrol],92.8 ± 22,
CC[C@H](c1ccc(O)cc1)[C@@H](CC)c1ccc(O)cc1,64.9,
CCCCCC(O)CCCC(=O)O (stereo unspecified) [5-hydroxydecanoic acid sodium],89.4,
C=CCNc1ncnc2c1ncn2[C@@H]1O[C@H](CO)[C@@H](O)[C@H]1O [N-Allyladenosine],,85.7
COc1cc2oc(-c3ccccc3)cc(=O)c2cc1O,,60.9
CC(=O)Oc1ccc(/C=C/C(=O)CC2OC(Oc3cc(OC(C)=O)c4c(c3)O[C@@H](c3ccc(OC(C)=O)cc3)CC4=O)C(OC(C)=O)C(OC(C)=O)C2OC(C)=O)cc1 (stereo partly specified),,78.2
CCN1CCCC1CNC(=O)c1cc(S(N)(=O)=O)ccc1OC (racemic) [(±)-Sulpiride],114,
O=c1c(O)c(-c2ccccc2)oc2cc(O)cc(O)c12 [Galangin],,52.2
O=C(O)c1cc(=O)c2c(OCC(O)COc3cccc4oc(C(=O)O)cc(=O)c34)cccc2o1,70.2,
O=C(O)c1cc(=O)c2c(OCC(O)COc3cccc4oc(C(=O)O)cc(=O)c34)cccc2o1 [Disodium Cromoglycate],103,
O=C(O)c1cc(=O)c2c(OCC(O)COc3cccc4oc(C(=O)O)cc(=O)c34)cccc2o1 [Cromolyn disodium salt],116,
C=CCc1ccccc1OCC(O)CNC(C)C (stereo unspecified) [Alprenolol],98.7,
C=CCc1ccccc1OCC(O)CNC(C)C (stereo unspecified) [Alprenolol hydrochloride],91.5 ± 19,
C=CCc1ccccc1OCC(O)CNC(C)C (stereo unspecified),97.3,
NC[C@H]1CC[C@H](C(=O)O)CC1 [Tranexamic acid],79.6,
NC[C@H]1CC[C@H](C(=O)O)CC1,77.4,
Oc1c(Cl)cc(Cl)cc1Sc1cc(Cl)cc(Cl)c1O,84.1,
CCCCOc1ccc(CC(=O)NO)cc1 [Bufexamac],81.7,
CCCCOc1ccc(CC(=O)NO)cc1,84.4,

SMILES,HMGB1-induced TNF-alpha production (compound concentration: 3 uM) [%],HMGB1-induced TNF-alpha production [1] [%]
CC(=O)OC(C)C[N+](C)(C)C (stereo unspecified),98.8,
CC(=O)OC(C)C[N+](C)(C)C (stereo not drawn) [Acetyl-beta-methylcholine chloride],86.3,
CC(=O)OC(C)C[N+](C)(C)C (stereo unspecified) [Methacholine chloride],93.6,
CCCCC[C@H](CC(=O)NO)C(=O)N[C@H](C(=O)N1CCC[C@H]1CO)C(C)C [Actinonin],92.2,
Cc1nc(N=Nc2ccc(S(=O)(=O)O)cc2S(=O)(=O)O)c(COP(=O)(O)O)c(C=O)c1O,104,
Cc1ccc(O)c([C@H](CCN(C(C)C)C(C)C)c2ccccc2)c1,112,
CCN1/C(=C/C(C)=O)Sc2ccc(OC)cc21,114,
"CN(C)C(=O)N=NC(=O)N(C)C [N,N,N',N'-Tetramethylazodicarboxamide]",98.7,
C/N=C(/NC#N)NCCSCc1csc(NC(=N)N)n1 [Tiotidine],135,
Nc1nc(=O)c2c([nH]1)NCC(CNc1ccc(C(=O)N[C@@H](CCC(=O)O)C(=O)O)cc1)N2C=O (stereo partly specified),109,
O=c1cc(-c2cccc(O)c2)oc2c(O)c(O)ccc12,,74.7
CCOc1ccc2cc(-c3ccccc3Cl)c(=O)oc2c1 [3(2'-Chlorophenyl)-7-ethoxycoumarin],,72.5
CCSc1ccc2c(c1)N(CCCN1CCN(C)CC1)c1ccccc1S2 [Thiethylperazine malate],109,
Cc1c(O)cccc1C(=O)N[C@@H](CSc1ccccc1)[C@H](O)CN1C[C@H]2CCCC[C@H]2C[C@H]1C(=O)NC(C)(C)C [Nelfinavir mesylate],74.2,
Cc1c(O)cccc1C(=O)N[C@@H](CSc1ccccc1)[C@H](O)CN1C[C@H]2CCCC[C@H]2C[C@H]1C(=O)NC(C)(C)C,98.6,
CC(C)CCC[C@@H](C)[C@H]1CC[C@H]2[C@@H]3CC=C4C[C@@H](O)CC[C@]4(C)[C@H]3CC[C@]12C,95.7,
Nc1ccn([C@@H]2O[C@H](CO)[C@@H](O)[C@H]2O)c(=O)n1 [Cytidine],,81.8
CN(C)CCC(c1ccccc1)c1ccccn1 (stereo unspecified),93.8,
CN(C)CCC(c1ccccc1)c1ccccn1 (stereo unspecified) [Pheniramine maleate],89.8 ± 30,
